The values that follow come from patent publication US20020115147A1.

Amino acid sequences for entries named in this document (tags omitted). A change or cut given only in a name is not applied to a line headed by its entry.
UniProt Q04095: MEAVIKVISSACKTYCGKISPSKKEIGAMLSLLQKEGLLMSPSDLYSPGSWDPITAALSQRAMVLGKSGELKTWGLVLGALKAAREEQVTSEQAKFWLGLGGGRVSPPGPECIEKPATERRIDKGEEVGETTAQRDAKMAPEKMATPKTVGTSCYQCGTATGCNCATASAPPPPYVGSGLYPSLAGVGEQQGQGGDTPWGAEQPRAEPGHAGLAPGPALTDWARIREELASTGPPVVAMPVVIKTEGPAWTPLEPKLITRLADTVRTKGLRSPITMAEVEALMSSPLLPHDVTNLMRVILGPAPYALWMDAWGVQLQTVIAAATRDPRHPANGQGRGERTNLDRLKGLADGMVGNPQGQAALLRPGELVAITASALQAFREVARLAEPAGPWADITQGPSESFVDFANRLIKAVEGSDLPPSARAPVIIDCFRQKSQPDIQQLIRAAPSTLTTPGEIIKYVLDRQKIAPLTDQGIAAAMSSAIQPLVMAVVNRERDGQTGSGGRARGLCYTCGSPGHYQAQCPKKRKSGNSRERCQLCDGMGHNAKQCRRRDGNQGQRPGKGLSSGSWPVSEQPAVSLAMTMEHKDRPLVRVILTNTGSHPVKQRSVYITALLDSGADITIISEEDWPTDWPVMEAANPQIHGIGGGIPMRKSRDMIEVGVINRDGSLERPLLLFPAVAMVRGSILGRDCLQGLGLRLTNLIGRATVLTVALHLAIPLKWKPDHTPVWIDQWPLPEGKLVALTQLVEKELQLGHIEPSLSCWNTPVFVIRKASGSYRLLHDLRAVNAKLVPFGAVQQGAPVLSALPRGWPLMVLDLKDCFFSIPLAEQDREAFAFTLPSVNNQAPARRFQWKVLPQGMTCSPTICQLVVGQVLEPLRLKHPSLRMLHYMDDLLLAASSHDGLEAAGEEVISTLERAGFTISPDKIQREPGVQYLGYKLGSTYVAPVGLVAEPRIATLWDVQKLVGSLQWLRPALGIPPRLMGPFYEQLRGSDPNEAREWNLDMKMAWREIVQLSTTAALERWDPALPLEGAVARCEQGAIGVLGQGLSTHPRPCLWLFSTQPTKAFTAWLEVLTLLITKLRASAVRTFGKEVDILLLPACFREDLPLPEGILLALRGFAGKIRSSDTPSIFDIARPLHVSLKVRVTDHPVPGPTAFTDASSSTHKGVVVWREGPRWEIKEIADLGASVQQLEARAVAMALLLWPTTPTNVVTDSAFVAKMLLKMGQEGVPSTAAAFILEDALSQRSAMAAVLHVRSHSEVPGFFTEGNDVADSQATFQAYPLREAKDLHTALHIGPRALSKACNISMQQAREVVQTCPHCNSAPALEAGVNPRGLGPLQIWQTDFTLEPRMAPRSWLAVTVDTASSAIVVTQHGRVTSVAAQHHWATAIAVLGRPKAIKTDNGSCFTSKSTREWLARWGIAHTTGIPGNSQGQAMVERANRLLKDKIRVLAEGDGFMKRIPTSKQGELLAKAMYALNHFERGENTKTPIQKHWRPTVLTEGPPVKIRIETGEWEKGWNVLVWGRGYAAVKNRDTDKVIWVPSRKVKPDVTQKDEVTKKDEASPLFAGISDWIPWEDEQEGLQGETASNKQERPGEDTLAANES

Assay [1] concerns the target β-chain of the AMV-RT with an N-terminal His tag (expressed from pAMV-βdnaY-His or pAMVαβ-4) (Avian Myeloblastosis Virus) (UniProt Q04095). Briefly: co-purification of His-tagged α- and β-chains over Ni-chelate and heparin-sepharose columns; SDS gel of the final preparation.
Assay [2] has the same target. Briefly: co-purification of Arg-tagged α-chain with His-tagged β-chain over Ni-chelate, heparin-sepharose, S-sepharose and hydroxylapatite columns; SDS gel of the final preparation.

These are yes or no findings as the source states them, for the method shown. Binding seen in cells or lysates may run through a third protein. Some results given as binding are weak or reduced against the parent protein; the word gives no strength.

Take “α-chain of the AMV-RT with a His-tag like that of the β-chain (from pAMV-αlacIq-His-trpT, combined on pAMVαβ-4) (from UniProt Q04095 709-1280) (enzyme)”: in assay [1], the binding entry was “binds”.

“α-chain of the AMV-RT with an N-terminal Arg-tag (expressed from pAMV-αlacIq-Arg) (from UniProt Q04095 709-1280) (enzyme)”: in assay [2], the binding entry is “binds”.
